Measured values published in PubChem BioAssay AID720591 (Broad Institute, 2013).
Among all 1,200 compounds or so, about 60 (5%) were called active. Inconclusive results (about 1%) are left out.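 The calls were made as follows: active = Decreasing signal and fitted IC50 at most twice the top valid tested dose; inconclusive = Bad fit or a level curve showing 30 to 70% inhibition; inactive = the rest.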 The list shows a part of the results. Results with a measured potency or affinity are listed apart.

Amino acid sequences for entries named in this document (tags omitted). A change or cut given only in a name is not applied to a line headed by its entry.
UniProt Q9NXA8: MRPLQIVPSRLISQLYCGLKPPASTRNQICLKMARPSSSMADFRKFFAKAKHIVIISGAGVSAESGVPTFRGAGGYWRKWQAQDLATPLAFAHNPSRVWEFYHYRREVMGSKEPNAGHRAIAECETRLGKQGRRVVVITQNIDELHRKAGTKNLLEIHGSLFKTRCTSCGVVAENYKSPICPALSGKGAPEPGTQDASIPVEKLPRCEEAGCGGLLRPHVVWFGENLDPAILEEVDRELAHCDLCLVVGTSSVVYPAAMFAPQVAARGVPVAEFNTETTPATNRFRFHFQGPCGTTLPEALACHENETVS

What follows are compounds tested against NAD-dependent protein deacylase sirtuin-5, mitochondrial (Homo sapiens) (UniProt Q9NXA8) (assay: SIRT5 desuccinylase inhibitors, dose response, biochemical, fluorescence imaging, cherry-pick, set 5 (AID 720591;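 also: 0% = median of neutral control wells and -100% = median of positive control wells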)). Details: Purified SirT5, succinyl-peptide AMC, trypsin-coupled fluorescence; at 15 µM (top of the series) unless noted.
In the case of O=C(c1cccc(F)c1)N1CCCC(C(=O)N2CCCCC2)C1 (configuration not stated), the activity change, negative = inhibition is reported as inactive: -26.3%. O=C(Nc1ccccc1Cl)C1CC(=O)N(c2ccccc2)C1 (configuration not stated) was tested, and the activity change, negative = inhibition was inactive: 10.1%. COc1ccc(Nc2c3c(nc4ccc(C)cc24)CCC3)cc1 was tested, and the activity change, negative = inhibition was inactive: 2.04%. O=S1(=O)CC(N2CCN(CCO)CC2)CN1Cc1cn(Cc2cccc(C(F)(F)F)c2)nn1 (configuration not stated) was tested, and the activity change, negative = inhibition was inactive: -10.6%. COCCCN1C(=O)C(CC(=O)NC(c2ccccc2)c2ccccc2)CC(C(=O)N2CCOCC2)=C1C (configuration not stated) was tested, and the activity change, negative = inhibition was inactive: 47.8%. Cc1ccc(-c2ccc(CN3C(C)C(=O)N(Cc4cn(Cc5ccco5)nn4)CCS3(=O)=O)cc2)c(C)c1 (configuration not stated) was tested, and the activity change, negative = inhibition was inactive: -8.96%. In the case of CCCCC(CC)C(=O)Oc1ccc(O)c(C(C)(C)C)c1 (configuration not stated), the activity change, negative = inhibition is reported as inactive: 15.5%. In the case of Cc1ccc(S(=O)(=O)N(C)c2ccc(NS(C)(=O)=O)cc2)cc1, the activity change, negative = inhibition is reported as inactive: -2.72%. For COc1ccc(S(=O)(=O)Nc2ccc3c(c2)C(=O)N([C@H](C)CO)C[C@@H](C)[C@@H](CN(C)S(=O)(=O)c2ccc(Cl)cc2)O3)cc1, the activity change, negative = inhibition was inactive: 9.78%. For Cc1ccnc(NS(=O)(=O)c2ccc(NC(=O)Cc3ccc(F)cc3)cc2)n1, the activity change, negative = inhibition was inactive: 18%. For COC1OC(c2ccccc2)=C(c2ccc(C(N)=O)cc2)c2ccc(F)cc21 (configuration not stated), the activity change, negative = inhibition was inactive: -11.9%. CCc1ccc(-c2cc(C)no2)cc1S(=O)(=O)Nc1cc(C)ccn1 was tested, and the activity change, negative = inhibition was inactive: -34%. With C=CCNC(=O)COc1c(C)ccc(C)c1C the activity change, negative = inhibition was inactive: 2.07%. COc1ccc([C@H]2N[C@]3(CCCN(Cc4ccc(C)cc4)C3=O)[C@H]3C(=O)N(C)C(=O)[C@@H]23)cc1 was tested, and the activity change, negative = inhibition was inactive: -11.2%. In the case of CCCCCN(C(=O)CCC(=O)OCC(=O)c1ccc(CCC)cc1)c1c(N)n(CCCC)c(=O)[nH]c1=O, the activity change, negative = inhibition is reported as inactive: -27.7%. CCN(c1ccccc1)S(=O)(=O)c1ccc2[nH]c(=O)[nH]c2c1 was tested, and the activity change, negative = inhibition was inactive: 5.81%. In the case of COCc1nc2ccccc2n1Cc1ccccc1C, the activity change, negative = inhibition is reported as inactive: 22.3%. In the case of Cc1ccc(NC(=O)C2CCN(C(=O)c3ccco3)CC2)cc1, the activity change, negative = inhibition is reported as inactive: 12%. Cc1csc(NC(=O)CSc2sc3c(O)cc(=O)[nH]c3c2C#N)n1 was tested, and the activity change, negative = inhibition was inactive: -33.2%. In the case of O=C(Nc1ccccc1Cl)c1sccc1-c1ccccc1, the activity change, negative = inhibition is reported as inactive: 16.6%. For Cc1ccc(-c2csc(NC(=O)Cn3[nH]c(=O)c4ccccc4c3=O)n2)cc1, the activity change, negative = inhibition was inactive: -13.9%. With C=CC[C@@H](CC(=O)N[C@H](CO)Cc1ccccc1)C(=O)N[C@@H](COC(=O)[C@@H](CC=C)CC(=O)OC(C)(C)C)Cc1ccccc1 the activity change, negative = inhibition was inactive: 25.4%. Cc1cc(C)c2c(CN3CCOCC3)cc(=O)oc2c1 was tested, and the activity change, negative = inhibition was inactive: 2.2%. In the case of O=C1Nc2ccccc2C(=O)N2[C@H](c3ccc(F)cc3)[C@@H]3C(=O)N(Cc4ccccc4)C(=O)[C@@H]3[C@H]12, the activity change, negative = inhibition is reported as inactive: -12.5%. With Cc1cccc(C(=O)NCc2nnc(SC(C)C(=O)Nc3nnc(C)s3)n2C)c1 (configuration not stated) the activity change, negative = inhibition was inactive: -0.024%. In the case of Cc1cc(C)cc(Cn2cc(CN3CC(N4CCN(CCO)CC4)CS3(=O)=O)nn2)c1 (configuration not stated), the activity change, negative = inhibition is reported as inactive: -11.8%. Cc1ccc(CC(=O)Nc2ccc(C(=O)N3CCCCC3)cc2)cc1 was tested, and the activity change, negative = inhibition was inactive: -4.13%. CCCCN1CC(=O)N2[C@H](c3ccc(OC)cc3)[C@@H]3C(=O)N(CC)C(=O)[C@@H]3[C@]2(Cc2ccccc2)C1=O was tested, and the activity change, negative = inhibition was inactive: -22.5%. In the case of Cc1noc(C)c1S(=O)(=O)N(C)C[C@H]1Oc2ccc(NC(=O)C3CC3)cc2C(=O)N([C@H](C)CO)C[C@@H]1C, the activity change, negative = inhibition is reported as inactive: -13.5%. In the case of COc1ccc(CN2CCCC(N3CCN(c4cccc(Cl)c4)CC3)C2)cc1OC (configuration not stated), the activity change, negative = inhibition is reported as inactive: -1.42%. Cc1cccc2nc(CSc3ccc(Cl)cc3)cn12 was tested, and the activity change, negative = inhibition was inactive: 36.8%. In the case of c1nc(N2CCOCC2)c2c3c(sc2n1)CCCC3, the activity change, negative = inhibition is reported as inactive: -20.7%. O=C(OCC(=O)N1CCCC1)c1cc(Br)ccc1Cl was tested, and the activity change, negative = inhibition was inactive: -18.6%. For CCOC(=O)Cn1cc(C#N)c2cccc(CC)c21, the activity change, negative = inhibition was inactive: 1.89%. In the case of CCc1ccc(CN(C)CCc2ccccn2)cc1, the activity change, negative = inhibition is reported as inactive: 4.63%. In the case of O=C(O)CCCC(=O)N1CCc2cc(S(=O)(=O)N3CCc4ccccc43)ccc21, the activity change, negative = inhibition is reported as inactive: -51.6%. For CC1c2nc3ccccc3n2C(CC(=O)NCCCN2CCOCC2)C(=O)N1Cc1ccccc1 (configuration not stated), the activity change, negative = inhibition was inactive: 1.29%. With COc1cccc(OCC(=O)Nc2ccccc2C(N)=O)c1 the activity change, negative = inhibition was inactive: -30%. Clc1ccccc1OCCNc1nc(NCC2CC2)nc2ccsc12 was tested, and the activity change, negative = inhibition was inactive: -1.11%. With CCCCc1c(-c2ccccc2F)ncn1CCc1ccccc1OC the activity change, negative = inhibition was inactive: 13.7%. With COCOCCn1cc(CN2CCS(=O)(=O)N(Cc3ccc(-c4ccc(OC)cc4)cc3)C(CC(C)C)C2=O)nn1 (configuration not stated) the activity change, negative = inhibition was inactive: 15.5%. With CC(C)N1CCN(Cc2cc(F)ccc2-n2cccn2)CC1CCO (configuration not stated) the activity change, negative = inhibition was inactive: 7.78%. With COC(=O)C(CC(=O)CNC(=O)c1ccccc1)NC(=O)c1ccccc1 (configuration not stated) the activity change, negative = inhibition was inactive: 5.64%. CC(C)C(NS(=O)(=O)c1ccc2c(c1)Cc1cc(S(=O)(=O)NC(C(=O)O)C(C)C)ccc1-2)C(=O)O (configuration not stated) was tested, and the activity change, negative = inhibition was inactive: -25.8%. With COc1ccc(-c2noc(CN(C)C(=O)c3ccco3)n2)cc1 the activity change, negative = inhibition was inactive: -8.92%. For COc1ccc(CCNS(=O)(=O)c2cc3c4c(c2)C(C)C(=O)N4CCC3)cc1OC (configuration not stated), the activity change, negative = inhibition was inactive: -3.5%. In the case of O=C(CCS(=O)(=O)Cc1ccccc1)Nc1nncs1, the activity change, negative = inhibition is reported as inactive: -1.31%. With COc1ccc(C)cc1N(C)C(=O)Cc1c(C(=O)O)n(C)c2ccccc12 the activity change, negative = inhibition was inactive: -31.2%. For COCCCNc1nc2ccccc2nc1NS(=O)(=O)c1cccc(C)c1, the activity change, negative = inhibition was inactive: 0.837%. CCCc1cc(=O)oc2cc(C)cc(OCC(=O)NCC(O)c3ccccc3)c12 (configuration not stated) was tested, and the activity change, negative = inhibition was inactive: -7.43%. In the case of Cc1ccnc(NC(=O)CCC(=O)N(Cc2ccco2)C(C(=O)NC(C)C)c2ccc(F)cc2)c1 (configuration not stated), the activity change, negative = inhibition is reported as inactive: -23.7%. For COc1ccccc1CNCC(=O)Nc1ccc(C#N)cc1, the activity change, negative = inhibition was inactive: -0.398%. In the case of CN(C)CCCNC(=O)c1cc(C(=O)c2ccccc2F)c[nH]1, the activity change, negative = inhibition is reported as inactive: 1.08%. O=C(Cc1ccc(F)cc1)OCC(=O)N1CCN(S(=O)(=O)c2ccc(Cl)cc2)CC1 was tested, and the activity change, negative = inhibition was inactive: -2.77%. For CCCCCCN1C[C@@H](O)[C@H](n2cc(COC(=O)c3ccccc3)nn2)C[C@@H]1c1ccc(C)cc1, the activity change, negative = inhibition was inactive: 11.7%. In the case of CCCc1c(C)nc(N2CCN(c3ccc(F)cc3)CC2)[nH]c1=O, the activity change, negative = inhibition is reported as inactive: -20.3%. For Cc1c(C)n(C)c2ccc(C(=O)NCCN3CCOCC3)cc12, the activity change, negative = inhibition was inactive: -21.6%. For COc1nc(N2CCOCC2)nc(-n2cccc2)n1, the activity change, negative = inhibition was inactive: -0.488%. COc1ccc(CCNC(=O)COC(=O)CCC(=O)c2ccc(F)cc2)cc1OC was tested, and the activity change, negative = inhibition was inactive: 16.3%. CCOc1cccc(C(=O)NC2CCCCC2)c1 was tested, and the activity change, negative = inhibition was inactive: -14.4%. CCCCNC(=O)CN(c1cccc(F)c1)S(C)(=O)=O was tested, and the activity change, negative = inhibition was inactive: 18.6%. CCOc1cc(C(=O)OC(C)C(=O)Nc2ccc(S(N)(=O)=O)cc2)ccc1OCC(=O)N1CCOCC1 (configuration not stated) was tested, and the activity change, negative = inhibition was inactive: 3.63%. In the case of O=C1NC(Cc2ccc(O)cc2)c2nc3ccc(F)cc3c(=O)n2-c2cc3ccccc3cc21 (configuration not stated), the activity change, negative = inhibition is reported as inactive: -27.3%. Clc1ccc2nc(CSc3ccccc3)cn2c1 was tested, and the activity change, negative = inhibition was inactive: 17%. With Cn1cc(C(=O)NCCc2ccccc2)c(=O)c2cc(S(=O)(=O)N3CCOCC3)ccc21 the activity change, negative = inhibition was inactive: 3.07%. For NC(=O)CSc1nnc(-c2ccco2)n1-c1ccccc1, the activity change, negative = inhibition was inactive: -33.6%. With COc1ccc([C@H]2CC(=O)C[C@@H](CCn3cc(-c4cccnc4)nn3)O2)cc1 the activity change, negative = inhibition was inactive: -23.4%. For O=C(NCCCn1ccnc1)c1ccc(NS(=O)(=O)c2ccc(Cl)c(Cl)c2)cc1, the activity change, negative = inhibition was inactive: 8.85%. O=S(=O)(c1ccc(F)cc1)c1nc(-c2ccco2)oc1Nc1ccc(F)cc1 was tested, and the activity change, negative = inhibition was inactive: -1.22%. For CCOC(=O)c1cccc(NC(=O)c2ccc3c(c2)OCO3)c1, the activity change, negative = inhibition was inactive: -22.1%. CCc1cc2c(=O)c(-c3cnn(-c4ccccc4)c3)c(C)oc2cc1OCC(=O)Nc1cccc(C)c1 was tested, and the activity change, negative = inhibition was inactive: 10.1%. For Cc1ccc(NC(=O)C2CC(=O)n3ncnc3N2)cc1C (configuration not stated), the activity change, negative = inhibition was inactive: -28.3%. With Cc1ccc2nc(NC3=NC(CC(=O)O)C(=O)N3)nc(C)c2c1 (configuration not stated) the activity change, negative = inhibition was inactive: 22.2%. For COc1ccc(NC(=O)NCCN2CCN(c3cc(OC)ccc3OC)CC2)cc1, the activity change, negative = inhibition was inactive: 2.31%. For Cc1nn(-c2ccccc2)c(Cl)c1C(=O)NNC(=O)c1ccccc1O, the activity change, negative = inhibition was inactive: -0.052%. With Cc1ccc(CNC(=O)CCc2ccc(S(=O)(=O)NCC(C)C)cc2)cc1 the activity change, negative = inhibition was inactive: -24.4%. In the case of COc1ccc(NC(=O)C2=CC=CN3CCS(=O)(=O)N=C23)c(OC)c1, the activity change, negative = inhibition is reported as inactive: -34.1%. OC(COc1ccc(Br)cc1)CN1CCC(Cc2ccccc2)CC1 (configuration not stated) was tested, and the activity change, negative = inhibition was inactive: -2.68%. With N#Cc1ccc(C(=O)OCC(=O)N2CCN(C(=O)c3ccco3)CC2)cc1 the activity change, negative = inhibition was inactive: 24.8%. Cc1cc(NC(=O)CCC(=O)N(Cc2ccco2)C(C(=O)NC2CCCC2)c2ccccc2)no1 (configuration not stated) was tested, and the activity change, negative = inhibition was inactive: 8.61%. In the case of O=C(Nc1ccccc1C(=O)N1CCOCC1)c1cc2ccccc2o1, the activity change, negative = inhibition is reported as inactive: -3.3%. COC(=O)c1ccc([C@@H](O)[C@H](C)C(=O)CC(=O)OC(C)(C)C)cc1 was tested, and the activity change, negative = inhibition was inactive: -32%. In the case of CN(C(=O)CC1C(=O)NCCN1Cc1ccccc1C(F)(F)F)C1CCOCC1 (configuration not stated), the activity change, negative = inhibition is reported as inactive: 7.04%. CC(C)(C)Cc1nnc(NC(=O)Cc2cccs2)s1 was tested, and the activity change, negative = inhibition was inactive: 14.6%. With COc1ccc(C(=O)OCCN2CCCCC2)cc1 the activity change, negative = inhibition was inactive: -12%. For CCOC(=O)c1sc2nc(OCc3cccnc3)cc(C)c2c1N, the activity change, negative = inhibition was inactive: 7.5%. With CCN(c1ccccc1)S(=O)(=O)c1ccc(OC)c(NC(=O)Cc2ccccc2OC)c1 the activity change, negative = inhibition was inactive: 14.9%.
